Data: the supplement of paper PMC7830784
Structures can show the parent of a compound that is named as a salt. This is one part of the list. Most values lie within the scatter of the assay; repeated measurements hardly agree.

Tested on: Brugia pahangi adult female
Experiment: motility inhibition on day 3 relative to DMSO vehicle; higher = more active
Settings: 10 µM; 3 days

SMILES | motility inhibition on day 3 [%]
O=C([O-])Cc1ccccc1.[Na+] [sodium phenylacetate] | 1.33
CCN(CC)C(=O)N[C@H]1C=C2c3cccc4[nH]cc(c34)C[C@H]2N(C)C1 [R(+)-Lisuride hydrogen maleate] | 2.36
O=c1[nH]c2ccccc2n1CCCN1CCC(n2c(=O)[nH]c3cc(Cl)ccc32)CC1 [Domperidone] | 15.5
O=C([O-])c1ccccc1-c1c2cc(Br)c(=O)cc-2oc2[c]([Hg+])c([O-])c(Br)cc12.[Na+].[Na+].[OH-] [merbromin] | 66.1
CC(C)[N+](C)(CCC(C(N)=O)(c1ccccc1)c1ccccc1)C(C)C [isopropamide iodide] | 24
C#C[C@]1(O)CC[C@H]2[C@@H]3CCC4=CC(=O)CC[C@]4(C)[C@H]3CC[C@@]21C [ethisterone] | 13.8
CC(C)CC(N(C)C)C1(c2ccc(Cl)cc2)CCC1 (stereo not given) [sibutramine hydrochloride] | 25.2
CNC(=O)c1cc(C#N)cc(C)c1NC(=O)c1cc(Br)nn1-c1ncccc1Cl [Cyantraniliprole] | < 0
CCOc1ccc2c3c1O[C@H]1[C@@H](O)C=C[C@H]4[C@@H](C2)N(C)CC[C@@]341 [Ethylmorphine] | 3.41
C=CC[C@]1(O)CC[C@H]2[C@@H]3CCC4=CC(=O)CCC4=C3C=C[C@@]21C [altrenogest] | 34.9
C=C[C@H]1CN2CC[C@H]1C[C@@H]2[C@@H](O)c1ccnc2ccccc12 [cinchonine] | 23.7
C=CCN=C=S [allylisothiocyanate] | 4.08
CC(Cc1ccc(O)cc1)NCC(O)c1cc(O)cc(O)c1 (stereo not given) [fenoterol hydrobromide] | 5.3
C1CCc2nnnn2CC1 [pentetrazole] | < 0
COc1ccc2c(c1)[C@]13CCCC[C@@H]1[C@H](C2)N(C)CC3 [dextromethorphan hydrobromide] | 32.2
C=C[C@H]1CN2CC[C@H]1C[C@H]2[C@H](O)c1ccnc2ccccc12 [cinchonidine] | 3.31
CN1[C@@H]2CC[C@H]1C[C@@H](OC(=O)[C@H](CO)c1ccccc1)C2 [hyoscyamine] | 18.2
Nc1nc(N)nc(NC2CC2)n1 [cyromazine] | 12.1
Cc1ccc(-c2nc3ccc(C)cn3c2CC(=O)N(C)C)cc1 [zolpidem] | 3.78
O=[N+]([O-])O[C@@H]1CO[C@H]2[C@@H]1OC[C@@H]2O [isosorbide mononitrate] | 1.81
N[C@@H](Cc1ccc(N(CCCl)CCCl)cc1)C(=O)O [melphalan] | < 0
CC(C)N(CCC(C(N)=O)(c1ccccc1)c1ccccn1)C(C)C (stereo not given) [Disopyramide phosphate] | 1.01
N=C(N)NN [Aminoguanidine hemisulfate] | 10
C[C@H](N)[C@H](O)c1ccc(O)c(O)c1 [levonordefrin] | 53.6

SMILES | motility inhibition on day 3 [%]
COc1ccc(CN2CCNCC2)c(OC)c1OC [trimetazidine dihydrochloride] | 3.42
CC[C@H]1CN2CC[C@H]1C[C@@H]2[C@@H](O)c1ccnc2ccc(OC)cc12 [hydroquinidine] | < 0
C=C[C@H]1CN2CC[C@H]1C[C@H]2[C@H](OC(=O)OCC)c1ccnc2ccc(OC)cc12 [quinine ethyl carbonate] | 29.8
Cc1cc(O)ccc1Cl [chlorocresol] | < 0
C=C(C)[C@H]1CN[C@H](C(=O)O)[C@H]1CC(=O)O [kainic acid] | 14.6
CNc1ccc(C(=O)CC(O)CCC(C)C2OC(=O)CC(O)CC(=O)CC(O)CC(O)CC(O)CC(O)CC3(O)CC(O)C(C(=O)OC)C(CC(O[C@@H]4O[C@H](C)[C@@H](O)[C@H](N)[C@@H]4O)/C=C/C=C/C=C/C=C/C=C/C=C/C=C/C2C)O3)cc1.COC(=O)C1C(O)CC2(O)CC(O)CC(O)CC(O)CC(O)CC(=O)CC(O)CC(=O)OC(C(C)CCC(O)CC(=O)c3ccc(N)cc3)C(C)/C=C/C=C/C=C/C=C/C=C/C=C/C=C/C(O[C@@H]3O[C@H](C)[C@@H](O)[C@H](N)[C@@H]3O)CC1O2 (stereo not given in full) [mepartricin] | 6.66
Cc1ncc(CNC(=O)N(CCCl)N=O)c(N)n1 [nimustine] | < 0
Oc1cccc2cccnc12 [oxyquinoline] | 93.7
CC(C)(O)C(Cl)(Cl)Cl [chlorobutanol] | 11.9
CCCN1C[C@H](CSC)C[C@@H]2c3cccc4[nH]cc(c34)C[C@H]21 [Pergolide methanesulfonate] | < 0
N.N.[Cl][Pt][Cl] [cisplatin] | 16.2
COc1ccc2c3c1O[C@H]1[C@@H](O)C=C[C@H]4[C@@H](C2)N(C)CC[C@@]341 [Codeine] | 2.02
COc1cccc(C2(O)CCCCC2CN(C)C)c1 (stereo not given) [tramadol hydrochloride] | 26.5
CC(CCc1ccccc1)NC(C)C(O)c1ccc(O)cc1 (stereo not given) [Nylidrin hydrochloride] | 8.36
CC(=O)OC1CN2CCC1CC2 (stereo not given) [aceclidine hydrochloride] | 6.35
C#CC1(OC(N)=O)CCCCC1 [Ethinamate] | 7.67
c1ccc2nc(N3CCNCC3)ccc2c1 [Quipazine dimaleate] | 17.3
C[N+](C)(C)CCCCCCCCCC[N+](C)(C)C [Decamethonium dibromide] | 10.8
CN1C[C@H](C(=O)N[C@]2(C)O[C@@]3(O)[C@@H]4CCCN4C(=O)[C@H](Cc4ccccc4)N3C2=O)C[C@@H]2c3cccc4[nH]cc(c34)C[C@H]21 [Dihydroergotamine methanesulfonate] | < 0
C[N+]1(C)[C@@H]2CC[C@H]1C[C@@H](OC(=O)C(CO)c1ccccc1)C2 (stereo not given in full) [methylatropine nitrate] | 0.151
NCCc1cc(O)c(O)cc1O [oxidopamine hydrochloride] | 59.2
N#Cc1nn(-c2c(Cl)cc(C(F)(F)F)cc2Cl)c(N)c1[S+]([O-])C(F)(F)F (stereo not given) [fipronil] | 10.4
O=C1C[C@@H]2OCC=C3CN4CC[C@]56c7ccccc7N1[C@H]5[C@H]2[C@H]3C[C@H]46 [strychnine] | 0.852
CC(C)=CC1C(C(=O)OCc2cccc(Oc3ccccc3)c2)C1(C)C (stereo not given) [phenothrin] | 19.2

SMILES | motility inhibition on day 3 [%]
NC(=O)C[S@@+]([O-])C(c1ccccc1)c1ccccc1 [armodafinil] | 9.78
C[CH2][Hg][S]c1ccccc1C(=O)[O-].[Na+] [thimerosal] | 99.8
O=C1C=C2C=C[C@@H]3C[C@@]2(O1)[C@H]1CCCCN31 [securinine] | 95
CCCC(C)C1(CC)C(=O)NC(=S)NC1=O (stereo not given) [thiopental sodium] | 15.4
O=C(O[C@H]1C[C@H]2CC[C@@H](C1)[N+]21CCCC1)C(O)(c1ccccc1)c1ccccc1 [trospium chloride] | 3.86
COc1ccc(C(=O)N2CCCC2=O)cc1 [Aniracetam] | 17.4
CC[C@H](OC(C)=O)C(C[C@H](C)N(C)C)(c1ccccc1)c1ccccc1 [LAAM hydrochloride] | 29.3
O=C(O)CCCc1ccc(N(CCCl)CCCl)cc1 [chlorambucil] | 55.6
CC[C@@H](C(N)=O)N1CCCC1=O [Levetiracetam] | 17.7
Nc1ccncc1 [4-Aminopyridine] | 15.8
C=CCC1(C(C)CCC)C(=O)NC(=O)NC1=O (stereo not given) [Secobarbital] | 13
CC[C@H](C)[C@H]1O[C@]2(C=C[C@@H]1C)C[C@@H]1C[C@@H](C/C=C(\C)[C@@H](O[C@H]3C[C@H](OC)[C@@H](O[C@H]4C[C@H](OC)[C@@H](O)[C@H](C)O4)[C@H](C)O3)[C@@H](C)/C=C/C=C3\CO[C@@H]4[C@H](O)C(C)=C[C@@H](C(=O)O1)[C@]34O)O2.CO[C@H]1C[C@H](O[C@H]2[C@H](C)O[C@@H](O[C@@H]3/C(C)=C/C[C@@H]4C[C@@H](C[C@]5(C=C[C@H](C)[C@@H](C(C)C)O5)O4)OC(=O)[C@@H]4C=C(C)[C@@H](O)[C@H]5OC/C(=C\C=C\[C@@H]3C)[C@]54O)C[C@@H]2OC)O[C@@H](C)[C@@H]1O [avermectin b1] | 83.3
O=[N+]([O-])c1cc([As](=O)(O)O)ccc1O [roxarsone] | 21.5
CCN1C[C@]2(COC)[C@H](O)C[C@H](OC)[C@@]34[C@@H]5C[C@@]6(O)[C@H](OC(=O)c7ccccc7)[C@@H]5[C@@](OC(C)=O)([C@@H]([C@H](OC)[C@H]23)[C@@H]14)[C@@H](O)[C@@H]6OC [aconitine] | < 0
C[C@]12CC[C@@H]3c4ccc(OC(=O)N(CCCl)CCCl)cc4CC[C@H]3[C@@H]1CC[C@@H]2O [estramustine] | 43.1
COc1ccc(O)c(C(C)(C)C)c1.COc1ccc(O)cc1C(C)(C)C [butylated hydroxyanisole] | 7.45
C[C@@H]1O[C@@H](O[C@H]2C[C@@H](O)[C@]3(CO)[C@H]4[C@H](O)C[C@]5(C)[C@@H](C6=CC(=O)OC6)CC[C@]5(O)[C@@H]4CC[C@]3(O)C2)[C@H](O)[C@H](O)[C@H]1O [ouabain] | 12.1
[N-]=[N+]=CC(=O)OC[C@H](N)C(=O)O [azaserine] | 16.7
C[N+]1([O-])[C@@H]2CC[C@H]1C[C@@H](OC(=O)C(CO)c1ccccc1)C2 (stereo not given in full) [atropine oxide] | 12.8
CN1CC[C@]23c4c5ccc(O)c4O[C@H]2C(=O)CC[C@H]3[C@H]1C5 [Hydromorphone hydrochloride] | 3.71
N=C1NC(=O)N2CC12 (stereo not given) [imexon] | 6.76
CC[C@@H](c1cccc(O)c1)[C@@H](C)CN(C)C [tapentadol hydrochloride] | 23.5
